System: U2OS-TET-Flag-HR23B inducible cells
Experiment: Cell colony assay
Type: cell-based
Conditions: ectopic HR23B (+Dox) compared to uninduced (−Dox) cells; 9 days
Procedure: e) i) U2OS cells stably expressing HR23B were grown in duplicate in the absence (−) or presence (+) of doxycycline together with SAHA (indicated concentration in μM) and, after 9 days, the number of viable cell colonies was assessed by crystal violet staining. The untreated control cells are shown for comparison.
ii) Graphical representation of the data in (i).
U2OS-TET-Flag-HR23B inducible cells were seeded at 1000 cells/well in 6-well plates. Flag-HR23B was induced for 4 hr prior to 24 hr drug treatment as indicated. At 9 days post-drug treatment, cells were washed in PBS, fixed in methanol and stained with crystal violet solution for 15 min before extensive washing with water. The colonies were quantified using an Alphalmager® HP Imaging System and Alphaview software by Alpha Innotech Corporation.

O=C(CCCCCCC(=O)Nc1ccccc1)NO [SAHA, N-hydroxy-N′-phenyloctanediamide]
growth inhibitory effect (reduction in cell colony formation number): markedly enhanced growth inhibitory effect

From patent US20160069887A1, “BIOMARKERS FOR PROGNOSIS” (ISIS INNOVATION LIMITED, priority 2013, published 2016)
